The list shows only some results of the screen, not a fair sample: it is rich in T/C values a quarter to a half above the control, in often repeated tests (any T/C) and in doses without a T/C. Other doses and runs of a compound stand elsewhere. T/C gives the treated animals as a percentage of the vehicle group. Some entries give survivors of the animals treated and no T/C: the source files T/C as zero there, which appears to mark a toxic dose or a test without result, not a measured value. Some doses without a T/C left all or most animals alive at the check, yet need not have been tolerated: survival well below the control is almost never listed, so the zero probably covers shortened survival too. Survivors were counted at the toxicity check, usually on the fifth day, unless a day is given; later deaths do not show. Schedules are NCI's codes, taken here to give the interval after Q, in days (D) or hours (H), and the number of doses after X. Some structures stand for samples that the source files as different forms (salt, stereo form or complex); doses refer to the form tested. Where survival is the endpoint, this PubChem deposit counts one and a half times the control or more as active, and values a quarter to a half above the control carry no call in these data; other NCI protocols may use other cut-offs. Some T/C values carry the count of animals alive at the toxicity check (mostly the fifth day); without a count, all were alive then. Some entries hold several experiments; the values are given in rising order.
Test system: BDF1 mice, B16 melanoma ip, median survival T/C
Experiment: NCI In Vivo Anticancer Drug Screen. Data for tumor model B16 Melanoma (intraperitoneal) in B6D2F1 (BDF1) mice
Conditions: T/C endpoint: median survival time, higher T/C = longer survival
Method in brief: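 Tumor-bearing mice received test compound or vehicle. Survival or tumor size was then measured in both groups. The treated-group figure was divided by the control-group figure.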

[1] = dose: 200.0 mg/kg/injection, schedule: Q01DX009 (ip), vehicle: saline with Tween-80
[2] = dose: 100.0 mg/kg/injection, schedule: Q01DX009 (ip), vehicle: Klucel (hydroxypropylcellulose) (HPC)
[3] = dose: 400.0 mg/kg/injection, schedule: Q01DX009 (ip), vehicle: Klucel (hydroxypropylcellulose) (HPC)
[4] = dose: 400.0 mg/kg/injection, schedule: Q01DX009 (ip), vehicle: saline with Tween-80
[5] = dose: 50.0 mg/kg/injection, schedule: Q01DX009 (ip), vehicle: Klucel (hydroxypropylcellulose) (HPC)
[6] = dose: 12.5 mg/kg/injection, schedule: Q01DX009 (ip), vehicle: Klucel (hydroxypropylcellulose) (HPC)
[7] = dose: 25.0 mg/kg/injection, schedule: Q01DX009 (ip), vehicle: Klucel (hydroxypropylcellulose) (HPC)

`O=C(O)c1ccc(C(Cl)(Cl)Cl)cc1` was tested, and the survivor count [1] was 8 of 10.

For `O=C(Nc1ccccc1O)/C(Cl)=C/Cl`, the survivor count [2] was 7 of 10.

`O=S(=O)(Nc1ccccc1)c1ccc(C2CC3(Cl)C(Cl)=C(Cl)C2(Cl)C3(Cl)Cl)cc1` (centres undefined) was tested, and the survivor count [3] was 10 of 10.

For `CS(=O)(=O)OCC(=O)NCC(O)CNC(=O)COS(C)(=O)=O`, the survivor count [4] was 3 of 10.

`CCCCCCCCCCCCCCCC[N+](C)(C)C` was tested, and the survivor count (dose: 4.0 mg/kg/injection, schedule: Q04DX003 (ip), vehicle: saline) was 10 of 10, the survivor count (dose: 8.0 mg/kg/injection, schedule: Q01DX009 (ip), vehicle: saline) was 10 of 10 and the survivor count (dose: 8.0 mg/kg/injection, schedule: Q04DX003 (ip), vehicle: saline) was 10 of 10. The survivor count (dose: 11.0 mg/kg/injection, schedule: Q01DX009 (ip), vehicle: saline) was 4 of 10, the survivor count (dose: 16.0 mg/kg/injection, schedule: Q01DX009 (ip), vehicle: saline) was 10 of 10 and the survivor count (dose: 16.0 mg/kg/injection, schedule: Q04DX003 (ip), vehicle: saline) was 10 of 10. The survivor count (dose: 32.0 mg/kg/injection, schedule: Q01DX009 (ip), vehicle: saline) was 8 of 10.

With `Cc1c(Cl)cccc1NC(=O)COc1ccc(Cl)cc1` the survivor count (dose: 75.0 mg/kg/injection, schedule: Q01DX009 (ip), vehicle: Klucel (hydroxypropylcellulose) (HPC)) was 10 of 10, the survivor count (dose: 150.0 mg/kg/injection, schedule: Q01DX009 (ip), vehicle: Klucel (hydroxypropylcellulose) (HPC)) was 10 of 10 and the survivor count (dose: 300.0 mg/kg/injection, schedule: Q01DX009 (ip), vehicle: Klucel (hydroxypropylcellulose) (HPC)) was 10 of 10.

With `Nc1nc(N)c2nc(CN(CCO)c3ccc(C(=O)NC(CCC(=O)O)C(=O)O)cc3)cnc2n1` (centres undefined) the T/C (dose: 2.0 mg/kg/injection, schedule: Q01DX009 (ip), vehicle: Klucel (hydroxypropylcellulose) (HPC)) was 149 % of control, the T/C (dose: 4.0 mg/kg/injection, schedule: Q01DX009 (ip), vehicle: Klucel (hydroxypropylcellulose) (HPC)) was 142 % of control and the survivor count (dose: 8.0 mg/kg/injection, schedule: Q01DX009 (ip), vehicle: Klucel (hydroxypropylcellulose) (HPC)) was 10 of 10. For the same compound, the survivor count (dose: 16.0 mg/kg/injection, schedule: Q01DX009 (ip), vehicle: Klucel (hydroxypropylcellulose) (HPC)) was 10 of 10.

With `CCCCCCCCCCCCCCCCCCN(C)C` the survivor count [5] was 9 of 10 and the survivor count [2] was 5 of 10.

In the case of `C=C(C)C12OC3(/C=C/C=C/CCCCC)OC1C1C4OC4(CO)C(O)C4(O)C(=O)C(C)=CC4C1(O3)C(C)C2OC(=O)c1ccccc1` (centres undefined), the survivor count (dose: 0.5 micrograms/kg/injection, schedule: Q01DX009 (ip), vehicle: saline) is reported as 10 of 10, the survivor count (dose: 1.0 micrograms/kg/injection, schedule: Q01DX009 (ip), vehicle: saline) is reported as 9 of 10 and the survivor count (dose: 1.9 micrograms/kg/injection, schedule: Q01DX009 (ip), vehicle: saline) is reported as 10 of 10. The survivor count (dose: 3.8 micrograms/kg/injection, schedule: Q01DX009 (ip), vehicle: saline) was 10 of 10, the survivor count (dose: 7.5 micrograms/kg/injection, schedule: Q01DX009 (ip), vehicle: saline) was 9 of 10 and the survivor count (dose: 15.0 micrograms/kg/injection, schedule: Q01DX009 (ip), vehicle: saline) was 10 of 10. The survivor count (dose: 30.0 micrograms/kg/injection, schedule: Q01DX009 (ip), vehicle: saline) was 10 of 10.

`CC(=O)Nc1ccc([N+](=O)[O-])cc1` was tested, and the survivor count [1] was 10 of 10 and the survivor count [4] was 7 of 10.

In the case of `O=S(=O)(c1ccccc1)N1CN2CCN(C2)C1`, the survivor count [4] is reported as 9 of 10.

`CC1CC(C)CC(C)C(O)/C(C#N)=C/C=C/CC(C2CCCC2C(=O)O)OC(=O)CC(O)C(C)C1` (centres undefined) was tested, and the survivor count (dose: 2.0 mg/kg/injection, schedule: Q01DX009 (ip), vehicle: saline with Tween-80) was 8 of 10, the survivor count (dose: 6.25 mg/kg/injection, schedule: Q01DX009 (ip), vehicle: Klucel (hydroxypropylcellulose) (HPC)) was 4 of 10 and the survivor count [6] was 2 of 10. The survivor count [7] was 0 of 10.

In the case of `O=C(O)C(CSC(c1ccccc1)(c1ccccc1)c1ccccc1)N=Cc1cccs1` (centres undefined), the T/C (dose: 50.0 mg/kg/injection, schedule: Q01DX009 (ip), vehicle: saline) is reported as 134 % of control, the survivor count (dose: 100.0 mg/kg/injection, schedule: Q01DX009 (ip), vehicle: saline) is reported as 10 of 10 and the survivor count (dose: 200.0 mg/kg/injection, schedule: Q01DX009 (ip), vehicle: saline) is reported as 10 of 10. The survivor count (dose: 400.0 mg/kg/injection, schedule: Q01DX009 (ip), vehicle: saline) was 4 of 10.

With `CCc1ccccc1NC(=O)Nc1ccc(OC)cc1` the survivor count [2] was 10 of 10.

For `NC(=S)N/N=C\c1ncnc2ccccc12`, the T/C [6] was 133 % of control, the T/C [7] was 129 % of control and the survivor count [5] was 10 of 10.

For `CC(C)c1ccc(C(c2c(O)c3ccccc3oc2=O)c2c(O)c3ccccc3oc2=O)cc1`, the survivor count [2] was 10 of 10, the survivor count (dose: 200.0 mg/kg/injection, schedule: Q01DX009 (ip), vehicle: Klucel (hydroxypropylcellulose) (HPC)) was 10 of 10 and the survivor count [3] was 8 of 10.

In the case of `S=P(NCCNP(=S)(N1CC1)N1CC1)(N1CC1)N1CC1`, the survivor count [5] is reported as 10 of 10 and the survivor count [2] is reported as 10 of 10.

With `COc1ccc(Nc2c3ccccc3nc3ccccc23)cc1` the T/C (dose: 25.0 mg/kg/injection, schedule: Q01DX009 (ip), vehicle: saline with Tween-80) was 125 % of control, the T/C (dose: 50.0 mg/kg/injection, schedule: Q01DX009 (ip), vehicle: saline with Tween-80) was 126 and 129 % of control [9 of 10 alive] and the survivor count (dose: 100.0 mg/kg/injection, schedule: Q01DX009 (ip), vehicle: saline with Tween-80) was 9 of 10. For the same compound, the survivor count [1] was 2 of 10 and the survivor count [4] was 0 of 10.

With `O=C1CN(CCN2CC(=O)NC(=O)C2)CC(=O)N1` the T/C (dose: 60.0 mg/kg/injection, schedule: Q01DX009 (oral), vehicle: saline) was 127 % of control, the T/C (dose: 120.0 mg/kg/injection, schedule: Q01DX009 (oral), vehicle: saline) was 140 % of control and the T/C (dose: 240.0 mg/kg/injection, schedule: Q01DX009 (oral), vehicle: saline) was 143 % of control.

With `COc1cccc(/C=N/C(=S)NC2(C)C3CCC(C3)C2(C)C)c1O` (centres undefined) the survivor count (dose: 12.5 mg/kg/injection, schedule: Q01DX009 (ip), vehicle: olive oil, sesame oil, peanut oil) was 10 of 10, the survivor count (dose: 25.0 mg/kg/injection, schedule: Q01DX009 (ip), vehicle: olive oil, sesame oil, peanut oil) was 10 of 10 and the survivor count (dose: 50.0 mg/kg/injection, schedule: Q01DX009 (ip), vehicle: olive oil, sesame oil, peanut oil) was 9 of 10. The survivor count (dose: 100.0 mg/kg/injection, schedule: Q01DX009 (ip), vehicle: olive oil, sesame oil, peanut oil) was 10 of 10, the survivor count (dose: 200.0 mg/kg/injection, schedule: Q01DX009 (ip), vehicle: olive oil, sesame oil, peanut oil) was 10 of 10 and the survivor count (dose: 400.0 mg/kg/injection, schedule: Q01DX009 (ip), vehicle: olive oil, sesame oil, peanut oil) was 10 of 10.

`Cc1ccc(NC(=O)c2ccccc2C(=O)O)cc1Cl` was tested, and the survivor count [3] was 2 of 10.

For `COc1ccc(C(Nc2ccccc2)C(=O)c2ccccc2)cc1` (centres undefined), the survivor count [5] was 7 of 10 and the survivor count [2] was 10 of 10.

`CCNC(C)(C)C(SSSC(c1cccs1)C(C)(C)NCC)c1cccs1` (centres undefined) was tested, and the survivor count [2] was 10 of 10.

For `C[C@@H]1CN1C1=CC(=O)C(N2C[C@H]2C)=CC1=O`, the T/C (dose: 1.0 mg/kg/injection, schedule: Q01DX009 (ip), vehicle: saline) was 127 % of control and the T/C (dose: 2.0 mg/kg/injection, schedule: Q01DX009 (ip), vehicle: saline) was 147 % of control.

For `CC(=O)OCC1OC(n2cnc3c(=S)nc[nH]c32)C(OC(C)=O)C1OC(C)=O` (centres undefined), the survivor count (dose: 200.0 mg/kg/injection, schedule: Q01DX009 (ip), vehicle: suspension in saline) was 10 of 10 and the survivor count (dose: 400.0 mg/kg/injection, schedule: Q01DX009 (ip), vehicle: suspension in saline) was 9 of 10.

Source: PubChem BioAssay AID192 (DTP/NCI, 2004)
